This assay addresses GST-LEDGF/p52 (UniProt O75475). In words: AlphaScreen or HTRF. (Bead proximity is the source of the signal in Alpha formats.)

Sequences of proteins named here, by UniProt entry; tags and fusion partners are left off. A change or cut given only in a name is not applied to a line headed by its entry. A line that says so, or that is headed by a name, gives the form on record, which may keep a tag or linker.
UniProt O75475: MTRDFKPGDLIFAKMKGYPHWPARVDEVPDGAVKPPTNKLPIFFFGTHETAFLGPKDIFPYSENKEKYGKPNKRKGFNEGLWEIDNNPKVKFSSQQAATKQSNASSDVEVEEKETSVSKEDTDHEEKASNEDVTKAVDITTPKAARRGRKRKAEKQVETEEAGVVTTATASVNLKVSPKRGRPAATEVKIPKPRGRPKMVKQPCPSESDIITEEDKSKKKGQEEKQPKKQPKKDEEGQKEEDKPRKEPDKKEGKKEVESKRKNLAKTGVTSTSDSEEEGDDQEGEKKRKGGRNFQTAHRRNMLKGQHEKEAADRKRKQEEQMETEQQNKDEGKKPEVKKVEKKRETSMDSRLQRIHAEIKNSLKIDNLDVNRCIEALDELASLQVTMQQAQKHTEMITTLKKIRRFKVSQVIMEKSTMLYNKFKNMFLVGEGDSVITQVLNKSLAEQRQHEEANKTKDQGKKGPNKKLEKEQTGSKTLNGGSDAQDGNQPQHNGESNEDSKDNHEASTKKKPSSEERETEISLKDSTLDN
GST-LEDGF/p52 (O75475, form named): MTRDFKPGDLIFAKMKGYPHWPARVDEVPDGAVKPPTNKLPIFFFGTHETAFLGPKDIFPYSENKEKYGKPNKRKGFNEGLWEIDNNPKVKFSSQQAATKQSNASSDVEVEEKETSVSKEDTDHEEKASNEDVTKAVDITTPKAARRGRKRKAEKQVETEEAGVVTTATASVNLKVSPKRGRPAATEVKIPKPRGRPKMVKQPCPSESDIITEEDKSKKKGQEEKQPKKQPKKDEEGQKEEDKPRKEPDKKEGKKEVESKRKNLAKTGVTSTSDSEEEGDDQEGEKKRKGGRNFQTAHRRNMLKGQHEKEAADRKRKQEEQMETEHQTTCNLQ

Results are given in words; binding and its absence hold for the method and conditions named. Some binding calls cover weakened binding; strength is not graded here.

Regarding “Flag-LEDGF/p75 (from UniProt O75475 1-530)”, the binding result is reported as “binds”.

These data come from publication doi:10.1101/2024.04.24.590897.
